# The entries are a selection whose mix differs from that of the whole data set. At the low end of the ranking, values are background and their order means little.
# By UniProt entry, the sequences of proteins in these tests, tags left out. Where a name states a change or a piece, a line headed by the entry shows the natural chain unless it says otherwise.
# UniProt P41212: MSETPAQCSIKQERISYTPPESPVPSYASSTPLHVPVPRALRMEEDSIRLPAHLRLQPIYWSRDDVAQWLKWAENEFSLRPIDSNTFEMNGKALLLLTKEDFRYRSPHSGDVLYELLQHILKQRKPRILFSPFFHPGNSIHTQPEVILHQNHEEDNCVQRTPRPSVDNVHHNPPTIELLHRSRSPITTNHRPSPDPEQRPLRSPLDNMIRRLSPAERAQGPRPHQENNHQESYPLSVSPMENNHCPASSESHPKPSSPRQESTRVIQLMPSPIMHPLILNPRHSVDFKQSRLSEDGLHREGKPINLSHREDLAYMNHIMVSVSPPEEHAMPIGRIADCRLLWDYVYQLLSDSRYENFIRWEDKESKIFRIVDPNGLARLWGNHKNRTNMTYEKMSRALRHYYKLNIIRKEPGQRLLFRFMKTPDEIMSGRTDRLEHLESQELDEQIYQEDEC
# Target: ETV6 (UniProt P41212)
# Assay: DAPPL (digital affinity profiling via proximity ligation, sequencing)
# Details: 10 mM Tris-HCl pH 7.5, 50 mM NaCl, 1 mM DTT, 4% glycerol, room temperature, 30 min; GST-TFs on glutathione beads, 16-mer random dsDNA library, 0.1% …; high values mean tight binding; double strand, one strand shown; scale: fold enrichment (6-mer frequency, TF over GST control)
row,Sequence,binding signal
1,ACTAAA,1.28
2,ATAAAT,1.25
3,CTATGA,0.963
4,CTATAA,1.16
5,CCGGAA,6.11
6,TCGCAC,0.969
7,AATTTA,1.33
8,CCTCTT,1.68
9,AAATGA,1.47
10,CAATAT,1.23
11,GACCTG,1.14
12,CCGCAC,1.56
13,ACTCTA,1.33
14,TCACAG,1.11
15,CTCCGG,1.56
16,CTGAGC,1.16
17,ATTTCT,1.39
18,GTTTAA,1.13
19,TCTAGT,1.12
20,GAAGTT,1.93

# Shown tab-delimited: entries from further up.
row	Sequence	binding signal
15	CTCCGG	1.56
16	CTGAGC	1.16

# More results follow.

row,Sequence,binding signal
1,ACAAGC,1.09
2,CACTGG,1.04
3,TCTCTA,1.21
4,TTTTGA,1.04
5,CTGCAA,1.33
6,ATATAC,1.19
7,CTGCAC,1.24
8,TCCGGC,2.28
9,TTCCCT,1.66
10,TGAACC,1.11
11,TTTTCA,1.21
12,TCTTCA,1.25
13,TAGCTA,1.28
14,ATCCCT,1.23
15,AGCTAA,0.986
16,AACATA,1.27
17,TTAAAA,1.19
18,TCTCGA,1.47
19,CTTTAA,1.23

# Reference: paper PMC7862700
